The results in this text go back to US5085989A, “Method and reagent for quantitative analysis of 3-oxo-5β-steroid” (Daiichi Pure Chemicals Co., Ltd., priority 1986, dated 1992).

The series has as its system 3-oxo-5β-steroidΔ^4 -dehydrogenase. Kind of series: Quantitative analysis of 3-oxo-5β-steroid in serum: reaction with Δ^4 DH and NTB, optical density at 540 nm. The class given is biochemical, Pseudomonas testosteroni. Particulars: pH 8, 37° C., 10 min.

Each structure is given as a SMILES string.

`C[C@]12CCC(=O)C[C@H]1CC[C@@H]1[C@@H]2CC[C@]2(C)C(=O)CC[C@@H]12` [5β-androstan-3,17-dione]: the “Optical Density at 540 nm” value reads like this: (Table 2, 5β-androstan-3,17-dione concentration 20 (mole/l as printed) in serum) 0.065; (Table 2, 5β-androstan-3,17-dione concentration 40 (mole/l as printed) in serum) 0.132; (Table 2, 5β-androstan-3,17-dione concentration 60 (mole/l as printed) in serum) 0.201; (Table 2, 5β-androstan-3,17-dione concentration 80 (mole/l as printed) in serum) 0.270; (Table 2, 5β-androstan-3,17-dione concentration 100 (mole/l as printed) in serum) 0.332; (Table 2, 5β-androstan-3,17-dione concentration 120 (mole/l as printed) in serum) 0.403.
Consider `C[C@H](CCC(=O)O)[C@H]1CC[C@H]2[C@@H]3C(=O)C[C@@H]4CC(=O)CC[C@]4(C)[C@H]3CC(=O)[C@]12C` [Dehydrochoric Acid, dehydrochoric acid], for which the “Optical Density at 540 nm” value reads like this: (Table 1, dehydrochoric acid concentration 20 (mole/l as printed) in serum) 0.022; (Table 1, dehydrochoric acid concentration 40 (mole/l as printed) in serum) 0.046; (Table 1, dehydrochoric acid concentration 60 (mole/l as printed) in serum) 0.077; (Table 1, dehydrochoric acid concentration 80 (mole/l as printed) in serum) 0.101; (Table 1, dehydrochoric acid concentration 100 (mole/l as printed) in serum) 0.122; (Table 1, dehydrochoric acid concentration 140 (mole/l as printed) in serum) 0.172. Moreover, under “Table 1, dehydrochoric acid concentration 180 (mole/l as printed) in serum”, the “Optical Density at 540 nm” value was found to be 0.226.
